Results are given in words; binding and its absence hold for the method and conditions named. Some results given as binding are weak or reduced against the parent protein; the word gives no strength. Where a sequence is shown, tags or fusion partners need not be part of it.
Molecular target: T1, His6-Strep-Bub1^ΔK (human) (UniProt O43683)
T1 sequence: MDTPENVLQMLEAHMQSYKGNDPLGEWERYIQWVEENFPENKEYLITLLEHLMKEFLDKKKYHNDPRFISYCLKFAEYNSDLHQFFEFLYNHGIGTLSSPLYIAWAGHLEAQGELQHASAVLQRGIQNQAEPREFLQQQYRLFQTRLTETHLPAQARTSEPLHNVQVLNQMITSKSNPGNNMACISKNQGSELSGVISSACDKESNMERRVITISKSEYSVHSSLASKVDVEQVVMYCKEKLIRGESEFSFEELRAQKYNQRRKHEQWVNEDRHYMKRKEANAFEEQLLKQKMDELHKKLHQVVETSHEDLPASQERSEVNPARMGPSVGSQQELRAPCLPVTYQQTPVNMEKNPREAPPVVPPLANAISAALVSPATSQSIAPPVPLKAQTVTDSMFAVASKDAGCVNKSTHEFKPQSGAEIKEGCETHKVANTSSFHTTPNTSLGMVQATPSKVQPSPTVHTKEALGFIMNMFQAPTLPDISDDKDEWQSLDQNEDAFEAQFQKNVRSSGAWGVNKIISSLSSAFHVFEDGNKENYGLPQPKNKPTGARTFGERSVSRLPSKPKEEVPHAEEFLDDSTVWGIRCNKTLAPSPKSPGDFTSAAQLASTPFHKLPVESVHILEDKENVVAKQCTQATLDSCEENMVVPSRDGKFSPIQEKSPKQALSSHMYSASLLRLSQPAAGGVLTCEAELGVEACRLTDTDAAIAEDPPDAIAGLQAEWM
Assay: co-purification; co-expressed in insect cells; Strep-Tactin (Bub1–Bub3) or glutathione beads (Cdk1–Cyclin B1)

Protein sequences, listed by entry. Tags and fused reporters are not part of them.
UniProt O43684: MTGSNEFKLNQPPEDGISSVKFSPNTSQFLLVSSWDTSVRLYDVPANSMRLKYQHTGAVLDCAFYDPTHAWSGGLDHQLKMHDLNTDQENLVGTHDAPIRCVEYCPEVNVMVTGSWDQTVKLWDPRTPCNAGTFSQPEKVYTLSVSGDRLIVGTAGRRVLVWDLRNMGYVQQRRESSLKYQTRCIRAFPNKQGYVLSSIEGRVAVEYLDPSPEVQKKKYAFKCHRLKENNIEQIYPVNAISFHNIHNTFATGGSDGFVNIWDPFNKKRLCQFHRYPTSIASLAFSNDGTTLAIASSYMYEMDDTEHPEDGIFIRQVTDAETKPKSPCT

His6-Bub3 (from UniProt O43684 1-328)
binding: binds

Source: publication PMC5268738, “A sequential multi-target Mps1 phosphorylation cascade promotes spindle checkpoint signaling” (eLife, 2017)
